Results deposited as PubChem BioAssay AID1159578 (Peter MacCallum Cancer Centre, 2015)
Test: 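siRNA pools altering how lymphatic endothelial cells close a scratch wound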 (primary screen). Cells: human lymphatic endothelial cells. Reagent: siRNA pool against human genes, 40 nM. Time to read-out: 48 h after transfection. Measurement: 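High-content imaging of dye-stained cells in a scratch assay measures filled wound area and nuclei per well; duplicate means given as ratio to mock and robust z-score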. Scale: migration robust z-score: higher = faster migration into the scratch; migration relative to mock: higher = more scratch area covered than mock; nuclei per well: higher = more cells in the well. Hit rule: 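Pools averaging fewer than 3300 nuclei are never called; remaining pools count as changed when migration robust z lies outside -2 to 2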. Calls: active = migration changed; inactive = no migration change, or too few cells.
Here is an unselected part of about 18,000 reagents tested. About 1,030 of them (5.7%) were called active. 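Inactive calls also include pools with fewer than 3300 nuclei, whose migration was not assessed.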 Raw values vary from plate to plate and are shown uncorrected. Unmarked entries are inactive.

gene,migration robust z-score,migration class with cell-count check,migration relative to mock,"nuclei per well, duplicate mean"
PDGFA,0.5,migration z between -2 and 2; enough cells,0.9,6167
SEMA3A,-0.17,migration z between -2 and 2; enough cells,0.84,5736
SMC5,-0.77,migration z between -2 and 2; enough cells,0.68,5276
ST14,-1.84,migration z between -2 and 2; enough cells,0.45,5286
AK7,0.8,migration z between -2 and 2; enough cells,0.96,7624
UNC13D,0.8,migration z between -2 and 2; enough cells,1.1,6226
ITLN1,-0.2,migration z between -2 and 2; enough cells,0.83,6827
LAX1,-2.75 (active),migration z below -2; enough cells,0.18,3339
DYNLT3,0.82,migration z between -2 and 2; enough cells,1.1,6242
TMEM82,-0.56,migration z between -2 and 2; enough cells,0.74,7000
TSG101,0.31,migration z between -2 and 2; enough cells,0.86,5031
FXR1,0.64,migration z between -2 and 2; enough cells,1.05,5508
BRSK1,-0.98,under 3300 nuclei; migration not judged,0.62,3004
AFTPH,-0.1,migration z between -2 and 2; enough cells,0.86,5947
DDX59,0.29,migration z between -2 and 2; enough cells,0.86,5470
NSG2,0.09,migration z between -2 and 2; enough cells,0.92,5518
ATP8B2,-1.5,migration z between -2 and 2; enough cells,0.52,4270
VCX3B,1.27,migration z between -2 and 2; enough cells,1.21,6967
LRRC73,-0.14,migration z between -2 and 2; enough cells,0.85,3886
ALOX12,-0.13,migration z between -2 and 2; enough cells,0.78,6068
PRSS42P,-0.8,migration z between -2 and 2; enough cells,0.65,5164
DLX6,0.43,migration z between -2 and 2; enough cells,1,5170
GYPC,1.25,migration z between -2 and 2; enough cells,1.04,6046
NOD2,-0.28,migration z between -2 and 2; enough cells,0.75,4348

Entries listed so far whose gene name begins with L or l:
gene,migration robust z-score,migration class with cell-count check,migration relative to mock,"nuclei per well, duplicate mean"
LAX1,-2.75 (active),migration z below -2; enough cells,0.18,3339
LRRC73,-0.14,migration z between -2 and 2; enough cells,0.85,3886

Next reagents follow:
gene,migration robust z-score,migration class with cell-count check,migration relative to mock,"nuclei per well, duplicate mean"
UQCC3,-1.29,migration z between -2 and 2; enough cells,0.55,5778
APOBR,0.28,migration z between -2 and 2; enough cells,0.96,5542
FABP7,0.36,migration z between -2 and 2; enough cells,0.88,5168
SFT2D3,-1.15,migration z between -2 and 2; enough cells,0.58,6032
ZNF75D,-0.18,migration z between -2 and 2; enough cells,0.84,6334
CCDC88B,-0.52,migration z between -2 and 2; enough cells,0.75,4648
RAB5IF,-0.01,migration z between -2 and 2; enough cells,0.88,5848
AFAP1L1,0.18,migration z between -2 and 2; enough cells,0.93,5918
PLXNB3,0.76,migration z between -2 and 2; enough cells,1.08,5946
GPHA2,0.54,migration z between -2 and 2; enough cells,1.02,6542
PHIP,-1.13,migration z between -2 and 2; enough cells,0.59,5145
ATP6V0C,-1.07,migration z between -2 and 2; enough cells,0.6,5950
ABI3,2.17 (active),migration z above 2; enough cells,1.45,6132
GRHL1,2.89 (active),migration z above 2; enough cells,1.64,5730
CGA,-1.12,migration z between -2 and 2; enough cells,0.6,4700
SIGLEC10,0.61,migration z between -2 and 2; enough cells,1.04,6230
PPP1R13L,0.14,migration z between -2 and 2; enough cells,0.92,5068
ZNF442,0.92,migration z between -2 and 2; enough cells,1.12,5381
SLITRK2,0.86,migration z between -2 and 2; enough cells,1.1,6789
ITIH4,1.32,migration z between -2 and 2; enough cells,1.23,5042
TRIM43,0.57,migration z between -2 and 2; enough cells,0.92,5536
RBL2,-1.43,migration z between -2 and 2; enough cells,0.53,4702
GPRIN2,0.55,migration z between -2 and 2; enough cells,1.02,5111
ZNF846,1.67,migration z between -2 and 2; enough cells,1.33,5538
ABCD2,0.62,migration z between -2 and 2; enough cells,0.92,6088
LRRN3,-0.08,migration z between -2 and 2; enough cells,0.86,5799
HELLS,-0.02,migration z between -2 and 2; enough cells,0.8,5327
TMCO5A,-0.02,migration z between -2 and 2; enough cells,0.88,6442
NHLRC1,0.78,migration z between -2 and 2; enough cells,0.96,6742
GGT7,0.21,migration z between -2 and 2; enough cells,0.84,4896
IGF2BP2,0.65,migration z between -2 and 2; enough cells,1.05,6971
DCAF12L1,0.62,migration z between -2 and 2; enough cells,1.04,5690
USPL1,-0.78,migration z between -2 and 2; enough cells,0.66,5260
